According to paper PMC9916828:
No constants are given. Whether binding was seen depends on the method and setting. For some of these results: Binding seen in cells or lysates may run through a third protein. Some binding calls cover weakened binding; strength is not graded here.

The chains behind the UniProt entries cited, without tags or fusion partners.
UniProt P37238: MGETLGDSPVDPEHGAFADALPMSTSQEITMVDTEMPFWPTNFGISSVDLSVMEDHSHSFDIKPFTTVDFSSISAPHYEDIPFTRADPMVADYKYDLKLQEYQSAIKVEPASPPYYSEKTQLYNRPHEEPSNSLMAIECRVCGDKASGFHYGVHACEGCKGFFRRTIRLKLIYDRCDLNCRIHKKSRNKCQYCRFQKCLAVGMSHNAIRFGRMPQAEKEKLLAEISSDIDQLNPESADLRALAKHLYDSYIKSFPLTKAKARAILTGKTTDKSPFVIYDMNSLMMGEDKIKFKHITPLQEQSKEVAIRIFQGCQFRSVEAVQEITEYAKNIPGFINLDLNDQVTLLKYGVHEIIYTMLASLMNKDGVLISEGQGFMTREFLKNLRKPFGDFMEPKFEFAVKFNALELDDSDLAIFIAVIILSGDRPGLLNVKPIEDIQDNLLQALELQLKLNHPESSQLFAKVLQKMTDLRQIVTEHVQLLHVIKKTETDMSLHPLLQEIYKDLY
UniProt P19785: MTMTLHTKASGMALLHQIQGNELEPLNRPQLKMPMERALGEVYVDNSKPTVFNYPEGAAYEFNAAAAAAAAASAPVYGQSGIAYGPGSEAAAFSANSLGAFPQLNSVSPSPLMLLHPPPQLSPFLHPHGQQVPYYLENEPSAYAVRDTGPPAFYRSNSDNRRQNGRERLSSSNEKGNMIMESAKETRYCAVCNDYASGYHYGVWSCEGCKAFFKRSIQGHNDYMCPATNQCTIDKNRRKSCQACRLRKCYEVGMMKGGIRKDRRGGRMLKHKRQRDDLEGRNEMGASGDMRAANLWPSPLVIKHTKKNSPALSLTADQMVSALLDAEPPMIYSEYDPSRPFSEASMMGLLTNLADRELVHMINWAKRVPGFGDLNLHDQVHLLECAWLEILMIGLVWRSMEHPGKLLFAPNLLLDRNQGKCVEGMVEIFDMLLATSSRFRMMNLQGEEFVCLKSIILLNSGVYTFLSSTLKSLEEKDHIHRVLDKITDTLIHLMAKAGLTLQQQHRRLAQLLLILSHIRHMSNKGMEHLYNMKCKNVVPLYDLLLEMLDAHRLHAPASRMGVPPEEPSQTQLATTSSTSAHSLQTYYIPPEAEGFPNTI
UniProt P37231: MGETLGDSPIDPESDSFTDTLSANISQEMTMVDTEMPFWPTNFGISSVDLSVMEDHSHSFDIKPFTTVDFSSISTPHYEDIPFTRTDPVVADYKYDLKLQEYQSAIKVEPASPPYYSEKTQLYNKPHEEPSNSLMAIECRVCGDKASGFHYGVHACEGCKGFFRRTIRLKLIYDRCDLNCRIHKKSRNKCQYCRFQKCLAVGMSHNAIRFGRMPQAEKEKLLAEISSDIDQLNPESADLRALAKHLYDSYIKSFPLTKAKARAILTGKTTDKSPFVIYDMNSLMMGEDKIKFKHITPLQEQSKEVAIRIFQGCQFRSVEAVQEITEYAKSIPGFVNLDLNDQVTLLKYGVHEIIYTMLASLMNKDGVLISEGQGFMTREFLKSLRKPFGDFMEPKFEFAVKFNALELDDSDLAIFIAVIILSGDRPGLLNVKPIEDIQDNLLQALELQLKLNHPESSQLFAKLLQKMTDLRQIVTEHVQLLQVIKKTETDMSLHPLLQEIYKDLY

T1: topoisomerase 1 (TOP1), endogenous mouse (mouse (endogenous in brain and cultured neurons)) (UniProt Q04750)
T1 sequence: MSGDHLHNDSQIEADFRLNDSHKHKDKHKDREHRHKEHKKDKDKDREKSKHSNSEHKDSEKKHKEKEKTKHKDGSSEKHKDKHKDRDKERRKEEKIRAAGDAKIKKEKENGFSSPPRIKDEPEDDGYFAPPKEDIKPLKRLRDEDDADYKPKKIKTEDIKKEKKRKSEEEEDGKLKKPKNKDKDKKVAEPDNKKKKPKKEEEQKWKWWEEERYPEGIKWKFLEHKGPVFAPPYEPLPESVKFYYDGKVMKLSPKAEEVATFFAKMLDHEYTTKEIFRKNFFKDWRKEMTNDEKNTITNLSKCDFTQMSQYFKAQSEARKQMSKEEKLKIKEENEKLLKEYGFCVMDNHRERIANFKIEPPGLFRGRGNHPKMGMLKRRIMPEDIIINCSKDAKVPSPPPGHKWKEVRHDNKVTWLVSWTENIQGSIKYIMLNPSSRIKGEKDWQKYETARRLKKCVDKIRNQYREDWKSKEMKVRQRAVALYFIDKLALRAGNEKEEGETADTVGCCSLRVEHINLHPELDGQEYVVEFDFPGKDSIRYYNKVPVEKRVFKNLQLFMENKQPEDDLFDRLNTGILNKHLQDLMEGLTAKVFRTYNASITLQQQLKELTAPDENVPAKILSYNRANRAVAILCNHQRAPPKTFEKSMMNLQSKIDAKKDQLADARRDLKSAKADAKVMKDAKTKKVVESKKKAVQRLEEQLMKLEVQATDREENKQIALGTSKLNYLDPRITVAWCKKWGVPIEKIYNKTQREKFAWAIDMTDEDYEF

T2: splicing factor proline/glutamine-rich (SFPQ), endogenous mouse (mouse (endogenous in cultured cortical neurons)) (UniProt Q8VIJ6)
T2 sequence: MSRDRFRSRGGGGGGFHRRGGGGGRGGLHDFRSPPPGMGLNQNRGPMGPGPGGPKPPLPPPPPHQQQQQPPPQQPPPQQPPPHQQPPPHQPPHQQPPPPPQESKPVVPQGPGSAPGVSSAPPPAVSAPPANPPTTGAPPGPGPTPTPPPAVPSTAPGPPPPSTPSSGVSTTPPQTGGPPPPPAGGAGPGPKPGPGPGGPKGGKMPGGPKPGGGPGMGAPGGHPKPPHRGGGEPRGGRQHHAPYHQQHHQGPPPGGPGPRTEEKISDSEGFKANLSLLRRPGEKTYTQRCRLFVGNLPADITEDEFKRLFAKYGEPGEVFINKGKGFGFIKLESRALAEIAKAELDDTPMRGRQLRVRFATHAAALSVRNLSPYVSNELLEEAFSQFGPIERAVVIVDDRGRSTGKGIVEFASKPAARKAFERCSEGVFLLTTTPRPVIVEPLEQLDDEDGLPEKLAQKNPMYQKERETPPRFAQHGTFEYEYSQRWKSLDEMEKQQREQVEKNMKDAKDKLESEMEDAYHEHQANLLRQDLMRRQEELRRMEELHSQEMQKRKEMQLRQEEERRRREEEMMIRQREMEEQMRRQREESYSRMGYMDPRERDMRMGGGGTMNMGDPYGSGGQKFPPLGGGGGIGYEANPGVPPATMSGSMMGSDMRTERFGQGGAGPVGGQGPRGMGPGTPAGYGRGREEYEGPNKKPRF


Experiments:
[1] = biological target: peroxisome proliferator-activated receptor γ (PPARγ), endogenous mouse (mouse (endogenous in brain and cultured neurons)) (UniProt P37238); test: proximity ligation; fixed, permeabilised cultured mouse cortical (and cerebellar) neurons from wild-type or L1 mutant mice; mouse L1 antibody C-2 with goat or rabbit antibodies against the partner, or rabbit L1 antibody ab12399 with mouse antibodies; cells treated with vehicle, 1 µM aprotinin, 50 µg/mL L1 antibody 557 or siRNAs
[2] = biological target: T1, topoisomerase 1 (TOP1), endogenous mouse (mouse (endogenous in brain and cultured neurons)); test: as above
[3] = biological target: estrogen receptor α (ERα), endogenous mouse (mouse (endogenous in cultured cortical neurons)) (UniProt P19785); test: as above
[4] = biological target: T2, splicing factor proline/glutamine-rich (SFPQ), endogenous mouse (mouse (endogenous in cultured cortical neurons)); test: as above
[5] = biological target: recombinant full-length human PPARγ (PPARgamma FL) (human) (UniProt P37231); test: ELISA; competition ELISA: 2.5 µM L1-ICD preincubated for 1 h without or with a five-fold molar excess of L1 peptides P1-P5, then incubated with substrate-coated TOP1 or PPARγ; detection with mouse L1 antibody C-2; both purified
[6] = biological target: recombinant full-length human PPARγ (PPARgamma FL) (human) (UniProt P37231); test: ELISA; TOP1 or PPARγ substrate-coated (25 µL of 10 or 20 µg/mL, overnight, 4 °C, 384-well plates), blocked with 2% BSA in PBS; increasing concentrations of His-tagged L1-ICD for 1 h at room temperature; detection with mouse L1 antibody C-2 and HRP-coupled secondary antibody; both purified

| Molecule | binding [1] | binding [2] | binding [5] | other results |
| --- | --- | --- | --- | --- |
| L1 with an arginine-to-alanine exchange at position 687 (L1/687 mutant) (from UniProt P11627 20-1260) | binds | binds | – | binding [3]: binds; binding [4]: binds |
| recombinant His-tagged L1-ICD (intracellular domain of cell adhesion molecule L1) (from UniProt P11627 1147-1260) (domain or fragment) | – | – | binds | binding [6]: binds |
| CSVDVQFNEDGSFIGQYSGK [synthetic L1 peptide P4] | – | – | binds | – |

Continued, in another order:

| binding [1] | binding [2] | binding [5] | Molecule | other results |
| --- | --- | --- | --- | --- |
| binds | binds | – | L1 with a mutation of the dibasic sequence RKHSKR to SKHSSS at positions 858–863 (L1/858–863 mutant) (from UniProt P11627 20-1260) | – |
| – | – | binds | CFIKRSKGGKYSVKDKEDTQVDSEARPMKDETFGE [synthetic L1 peptide P1] | – |
